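Whole-cell assay for inhibitors of Mycobacterium tuberculosis growth, labelled Cornell in the record; the read-out is not stated. The concentration is filed as 10 mM, unlikely as a test dose, so the dose is not known. Higher means stronger inhibition (inferred from two other growth screens of the library). Size under these conditions: about 53,000 compounds, about 900 of them at 50% or above in at least one test.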

The filed quantity is “Percent Effect” (%). The record does not define 0% and 100%; most values in the screen are far below 50% and negative numbers occur (in some assays of this library far below -100). The compounds are a random part of those screened.

* CN1C(=O)C2(CCN(c3ncccc3C(=O)O)CC2)c2ccccc21 | 7.021%
* Cc1nccc(C2(C)CCCNC2)n1.Cl.Cl (stereo not given) | -29.52%
* COc1cccc(CC2CN(C3CCC3)CCO2)c1 (stereo not given) | 15.93%
* Cc1nn(C(C)C)c(C)c1S(=O)(=O)Nc1ccc(C(=O)O)c(Cl)c1 | -28.75%
* O=C1NCCN(C(=O)c2cn3ccsc3n2)C1Cc1ccccc1 (stereo not given) | -9.435%
* [H][C@@]12C[C@H](C(=O)N3CCCC3)[C@@]([H])(CN(c3ncc(F)cn3)C1)O2 | 4.315%
* O=C(O)C(F)(F)F.O=C(O)C(F)(F)F.[H][C@]12C[C@@H](CN3CCCC3)N(C)[C@@]1([H])CCN(C(=O)Cc1ccsc1)C2 | 7.763%
* Cc1ncc(CN(C)C(=O)c2ccc3c(c2O)OC(C)(C)C3)s1 | -10.35%
* Cc1ncc(-c2ccnc(NC3CC3)n2)c(-c2cccnc2)n1 | -50.46%
* CCc1nc(CC(=O)N2CCCC2c2c(C)nn(C)c2OC)cs1 (stereo not given) | -12.51%
* OC(CNCCn1cccn1)COc1ccc(F)cc1 (stereo not given) | 3.373%
* CC(C)N(C)C(=O)CN1CCCC(c2ccc(C(=O)O)cc2)C1 (stereo not given) | -28.75%
* COc1ccc(Cl)cc1Nc1nc(N)c(C(C)=O)s1 | 39.05%
* CC(C)NC(=O)CCNC(=O)Nc1cnn(-c2ccccc2Cl)c1 | 21.97%
* [H][C@]12CC[C@]([H])(CN(CC(=O)N(C)C)C1)N(C(=O)Cc1ccccc1Cl)C2 | 8.602%
* Cc1cc(C(=O)NCCc2cn3nc(C)sc3n2)c(C)o1 | -88.08%
* Cc1cccn2cc(CN3CCCC(O)C3)nc12 (stereo not given) | 24.13%
* CCC(C(=O)N(C)C)n1ccc2ncccc2c1=O (stereo not given) | 6.503%
* Cc1ccccc1CNC(=O)CNc1ccc(OC2CCOC2)cc1 (stereo not given) | 74.57%
* CN(C)[C@@H]1CN(Cc2ccc(O)cc2)C[C@H]1c1cn(C)c2ccccc12.Cl | -25.68%
* [H][C@@]12CCCO[C@]1([H])[C@H](N(C)Cc1cccnc1)CN2C(=O)c1ccco1 | 3.676%
* Cc1noc(CCCC(=O)N2CCN(C)CC2c2ccccc2)n1 (stereo not given) | -7.486%
* CCn1nc(CNC(=O)C2CCCN(CC(N)=O)C2)c2ccccc21 (stereo not given) | 22.39%
* Cc1nn(C)c2nc(N3CCCC3c3nccs3)sc12 (stereo not given) | 12.2%
* OCC1(CCOc2ccccc2)CCCN(c2ccc(Cl)cn2)C1 (stereo not given) | 17.55%
* COc1cccc(S(=O)(=O)NC(=O)CC2CCCO2)c1 (stereo not given) | -40.24%
* Cc1noc(C)c1CN(C)Cc1csc(-c2ccccc2F)n1 | 46.24%
* CC(Oc1cccc(F)c1)C(=O)N(CC(N)=O)C1CCCC1 (stereo not given) | 3.254%
* Cc1ccc(S(=O)(=O)NC(=O)CCc2ccco2)cc1N(C)C | -27.53%
* CCOC(=O)C(C)NC(=O)CCc1ccc(F)cc1 (stereo not given) | 12.11%
* CCc1nc(CCNc2ccc(S(N)(=O)=O)cc2C#N)cs1 | 24.12%
* Cn1cc(CN2CCC3(CC2)CN(C(=O)c2cnccn2)CCO3)cn1 | -56.09%
* [H][C@@]12CN(Cc3cccnc3)C[C@]1([H])OCC(=O)N2 | -41.92%
* CC(C)c1ccc(OCCC(=O)NCCC(=O)N(C)C)cc1 | 7.387%
* Cc1cc(CNc2cc(Cl)ccc2Cl)no1 | 51.97%
* CN(CC(=O)N1CCCN(Cc2cscn2)CC1)c1cnccn1 | -2.553%
* O=C(COc1cccc(F)c1)N1C[C@@H](O)[C@H](N2CCCC2)C1 | 1.537%
* Cn1cc(-c2nnn3c2COC(CNCc2nccs2)C3)cn1 (stereo not given) | -3.394%
* Fc1cccc(N2CCCC3(CN(Cc4cccnc4)CCO3)C2)c1.O=C(O)C(F)(F)F.O=C(O)C(F)(F)F.O=C(O)C(F)(F)F (stereo not given) | 54.92%
* Cc1ccc(F)c(C(=O)N2CCN(S(C)(=O)=O)[C@@H](C)C2)c1 | 7.524%
* O=C(O)C(F)(F)F.[H][C@]12CN(CCc3ccccc3)C[C@@]1([H])S(=O)(=O)CC[C@@H]2C(=O)NC1CCC1 | 28.11%
* CC(Cc1cccc(Cl)c1)NC(=O)NCc1ncnn1C (stereo not given) | -7.535%
* CC(=O)c1nn(-c2ccccc2Cl)c(C)c1C(C)=O | 14.3%
* COCCCN(C(=O)c1ccc(-n2ccnc2)cc1)C1CCN(C)CC1 | -1.806%
* Cc1c(C(C)NC2CCN(C(C)C)CC2)cnn1-c1ccc(F)cc1F (stereo not given) | 7.554%

3 of the entries, repeated:

* COc1cccc(CC2CN(C3CCC3)CCO2)c1 (stereo not given) : 15.93%
* Cc1ccc(F)c(C(=O)N2CCN(S(C)(=O)=O)[C@@H](C)C2)c1 : 7.524%
* COc1ccc(Cl)cc1Nc1nc(N)c(C(C)=O)s1 : 39.05%

Source: ChEMBL document CHEMBL3988442, “University of Dundee, Small-Polar-MMV Screening Library” (2021).